Test results from publication PMC6588547.
No constants are given. Whether binding was seen depends on the method and setting. For some of these results: Binding seen in cells or lysates may run through a third protein. Some results given as binding are weak or reduced against the parent protein; the word gives no strength. For some of these results: Tags and fused reporters may be left off the sequences shown.

Assays:
[1] = target: T1, SLENDER RICE 1 (SLR1), full length, fused with GAL4 BD (rice (Oryza sativa L. spp. Japonica)) (UniProt Q7G7J6); test: two-hybrid; SLR1 and its truncations fused with GAL4 BD (pGBKT7), MOC1 and its truncations fused with GAL4 AD (pGADT7); tested on SD/-Trp/-Leu/-His/-Ade/X-α-Gal medium
T1 sequence: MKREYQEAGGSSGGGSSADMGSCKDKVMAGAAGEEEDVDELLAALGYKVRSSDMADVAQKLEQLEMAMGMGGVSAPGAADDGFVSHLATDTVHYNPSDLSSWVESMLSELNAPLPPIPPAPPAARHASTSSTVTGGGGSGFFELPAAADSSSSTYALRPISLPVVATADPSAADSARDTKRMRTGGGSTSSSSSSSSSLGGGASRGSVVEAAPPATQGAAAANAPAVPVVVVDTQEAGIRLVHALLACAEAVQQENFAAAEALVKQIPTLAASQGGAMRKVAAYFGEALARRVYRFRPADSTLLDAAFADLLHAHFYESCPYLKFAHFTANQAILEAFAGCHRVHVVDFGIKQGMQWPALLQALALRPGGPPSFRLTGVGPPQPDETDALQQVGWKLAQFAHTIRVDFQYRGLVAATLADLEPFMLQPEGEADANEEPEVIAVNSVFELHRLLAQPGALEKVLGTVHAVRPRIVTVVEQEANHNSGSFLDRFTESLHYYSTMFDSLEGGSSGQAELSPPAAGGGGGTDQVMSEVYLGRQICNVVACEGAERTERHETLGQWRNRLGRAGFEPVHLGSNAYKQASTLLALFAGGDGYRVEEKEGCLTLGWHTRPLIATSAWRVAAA

[2] = target: T2, GST-MOC1 (rice (Oryza sativa L. spp. Japonica)) (UniProt Q84MM9); test: pull-down; 1 μg of GST-MOC1 or GST bound to glutathione beads, incubated with 1 mL of total proteins from SLR1-GFPOE calli in extraction buffer at 4 °C for 2 h, washed three times; anti-GFP immunoblot; only the target purified
T2 sequence: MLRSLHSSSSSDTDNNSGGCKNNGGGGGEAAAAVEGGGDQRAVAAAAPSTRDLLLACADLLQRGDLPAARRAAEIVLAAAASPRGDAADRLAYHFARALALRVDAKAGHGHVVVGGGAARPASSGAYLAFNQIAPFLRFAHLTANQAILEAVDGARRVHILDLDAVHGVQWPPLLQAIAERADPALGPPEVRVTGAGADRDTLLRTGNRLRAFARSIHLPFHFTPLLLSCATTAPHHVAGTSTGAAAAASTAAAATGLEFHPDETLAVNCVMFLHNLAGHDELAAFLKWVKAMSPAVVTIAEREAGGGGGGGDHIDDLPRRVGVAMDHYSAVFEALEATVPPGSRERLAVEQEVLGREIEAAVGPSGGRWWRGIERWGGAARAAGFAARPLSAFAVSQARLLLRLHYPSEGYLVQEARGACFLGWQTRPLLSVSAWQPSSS

[3] = target: T3, CC-SLR1 (rice (Oryza sativa L. spp. Japonica)) (UniProt Q7G7J6); test: split reporter; BiFC with N- and C-terminal portions of enhanced CFP (pSCYNE, pSCYCE) in rice protoplasts, 14 h in the dark, confocal microscopy
T3 sequence: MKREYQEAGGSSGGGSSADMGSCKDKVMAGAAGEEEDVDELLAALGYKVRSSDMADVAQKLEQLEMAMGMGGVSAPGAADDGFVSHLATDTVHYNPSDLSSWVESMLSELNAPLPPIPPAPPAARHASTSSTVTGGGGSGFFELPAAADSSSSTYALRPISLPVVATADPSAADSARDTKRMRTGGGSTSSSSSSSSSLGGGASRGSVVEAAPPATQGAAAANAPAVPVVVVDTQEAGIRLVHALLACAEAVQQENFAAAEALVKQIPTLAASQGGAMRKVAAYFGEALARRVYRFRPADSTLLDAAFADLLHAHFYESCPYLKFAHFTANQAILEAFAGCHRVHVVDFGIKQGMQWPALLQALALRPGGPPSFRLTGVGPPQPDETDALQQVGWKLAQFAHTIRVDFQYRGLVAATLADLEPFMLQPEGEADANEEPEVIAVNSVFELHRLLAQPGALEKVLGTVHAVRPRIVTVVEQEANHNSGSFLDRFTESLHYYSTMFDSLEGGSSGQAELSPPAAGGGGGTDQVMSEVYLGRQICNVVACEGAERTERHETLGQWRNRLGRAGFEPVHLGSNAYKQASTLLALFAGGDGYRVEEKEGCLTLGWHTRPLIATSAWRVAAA

[4] = target: T4, SLR1-GFP (transient, rice protoplasts) (rice (Oryza sativa L. spp. Japonica)) (UniProt Q7G7J6); test: co-IP; MOC1-FLAG and SLR1-GFP transiently co-expressed in rice protoplasts, 14 h; extracts immunoprecipitated with anti-GFP, probed with anti-FLAG
T4 sequence: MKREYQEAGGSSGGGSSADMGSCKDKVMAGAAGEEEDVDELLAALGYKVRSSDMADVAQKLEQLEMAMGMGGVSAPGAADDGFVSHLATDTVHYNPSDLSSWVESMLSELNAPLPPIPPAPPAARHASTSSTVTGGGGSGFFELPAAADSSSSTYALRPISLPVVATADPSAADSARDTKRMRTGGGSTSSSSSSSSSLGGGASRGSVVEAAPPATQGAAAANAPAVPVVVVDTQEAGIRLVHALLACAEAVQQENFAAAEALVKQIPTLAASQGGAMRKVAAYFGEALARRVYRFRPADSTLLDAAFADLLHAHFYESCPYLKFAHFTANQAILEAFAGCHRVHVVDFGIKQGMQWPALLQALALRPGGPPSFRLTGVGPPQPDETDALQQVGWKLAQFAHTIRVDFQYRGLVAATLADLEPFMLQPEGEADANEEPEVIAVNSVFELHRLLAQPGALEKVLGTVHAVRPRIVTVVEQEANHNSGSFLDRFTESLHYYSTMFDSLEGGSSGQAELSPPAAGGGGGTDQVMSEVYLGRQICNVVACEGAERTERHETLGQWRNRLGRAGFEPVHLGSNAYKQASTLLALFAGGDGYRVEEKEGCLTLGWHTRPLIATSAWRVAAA

B1: MONOCULM 1 (MOC1), full length, fused with GAL4 AD (protein, UniProt Q84MM9 1-441)
chain: MLRSLHSSSSSDTDNNSGGCKNNGGGGGEAAAAVEGGGDQRAVAAAAPSTRDLLLACADLLQRGDLPAARRAAEIVLAAAASPRGDAADRLAYHFARALALRVDAKAGHGHVVVGGGAARPASSGAYLAFNQIAPFLRFAHLTANQAILEAVDGARRVHILDLDAVHGVQWPPLLQAIAERADPALGPPEVRVTGAGADRDTLLRTGNRLRAFARSIHLPFHFTPLLLSCATTAPHHVAGTSTGAAAAASTAAAATGLEFHPDETLAVNCVMFLHNLAGHDELAAFLKWVKAMSPAVVTIAEREAGGGGGGGDHIDDLPRRVGVAMDHYSAVFEALEATVPPGSRERLAVEQEVLGREIEAAVGPSGGRWWRGIERWGGAARAAGFAARPLSAFAVSQARLLLRLHYPSEGYLVQEARGACFLGWQTRPLLSVSAWQPSSS
binding [1]: binds

B2: SLR1-GFP (from SLR1-GFPOE calli) (protein, UniProt Q7G7J6 1-625)
chain: MKREYQEAGGSSGGGSSADMGSCKDKVMAGAAGEEEDVDELLAALGYKVRSSDMADVAQKLEQLEMAMGMGGVSAPGAADDGFVSHLATDTVHYNPSDLSSWVESMLSELNAPLPPIPPAPPAARHASTSSTVTGGGGSGFFELPAAADSSSSTYALRPISLPVVATADPSAADSARDTKRMRTGGGSTSSSSSSSSSLGGGASRGSVVEAAPPATQGAAAANAPAVPVVVVDTQEAGIRLVHALLACAEAVQQENFAAAEALVKQIPTLAASQGGAMRKVAAYFGEALARRVYRFRPADSTLLDAAFADLLHAHFYESCPYLKFAHFTANQAILEAFAGCHRVHVVDFGIKQGMQWPALLQALALRPGGPPSFRLTGVGPPQPDETDALQQVGWKLAQFAHTIRVDFQYRGLVAATLADLEPFMLQPEGEADANEEPEVIAVNSVFELHRLLAQPGALEKVLGTVHAVRPRIVTVVEQEANHNSGSFLDRFTESLHYYSTMFDSLEGGSSGQAELSPPAAGGGGGTDQVMSEVYLGRQICNVVACEGAERTERHETLGQWRNRLGRAGFEPVHLGSNAYKQASTLLALFAGGDGYRVEEKEGCLTLGWHTRPLIATSAWRVAAA
binding [2]: binds

B3: CN-MOC1 (protein, UniProt Q84MM9 1-441)
chain: MLRSLHSSSSSDTDNNSGGCKNNGGGGGEAAAAVEGGGDQRAVAAAAPSTRDLLLACADLLQRGDLPAARRAAEIVLAAAASPRGDAADRLAYHFARALALRVDAKAGHGHVVVGGGAARPASSGAYLAFNQIAPFLRFAHLTANQAILEAVDGARRVHILDLDAVHGVQWPPLLQAIAERADPALGPPEVRVTGAGADRDTLLRTGNRLRAFARSIHLPFHFTPLLLSCATTAPHHVAGTSTGAAAAASTAAAATGLEFHPDETLAVNCVMFLHNLAGHDELAAFLKWVKAMSPAVVTIAEREAGGGGGGGDHIDDLPRRVGVAMDHYSAVFEALEATVPPGSRERLAVEQEVLGREIEAAVGPSGGRWWRGIERWGGAARAAGFAARPLSAFAVSQARLLLRLHYPSEGYLVQEARGACFLGWQTRPLLSVSAWQPSSS
binding [3]: binds

B4: MOC1-FLAG (protein, UniProt Q84MM9 1-441)
chain: MLRSLHSSSSSDTDNNSGGCKNNGGGGGEAAAAVEGGGDQRAVAAAAPSTRDLLLACADLLQRGDLPAARRAAEIVLAAAASPRGDAADRLAYHFARALALRVDAKAGHGHVVVGGGAARPASSGAYLAFNQIAPFLRFAHLTANQAILEAVDGARRVHILDLDAVHGVQWPPLLQAIAERADPALGPPEVRVTGAGADRDTLLRTGNRLRAFARSIHLPFHFTPLLLSCATTAPHHVAGTSTGAAAAASTAAAATGLEFHPDETLAVNCVMFLHNLAGHDELAAFLKWVKAMSPAVVTIAEREAGGGGGGGDHIDDLPRRVGVAMDHYSAVFEALEATVPPGSRERLAVEQEVLGREIEAAVGPSGGRWWRGIERWGGAARAAGFAARPLSAFAVSQARLLLRLHYPSEGYLVQEARGACFLGWQTRPLLSVSAWQPSSS
binding [4]: binds
